# From PubChem BioAssay AID1487 (National Center for Advancing Translational Sciences (NCATS), 2009)
# Some of the results follow. Shown are side measurements of this screen, not its main read-out; they come without a call. Most of these compounds were active or inconclusive in the main read-out, so they are no random draw. Potencies come from curve fits of mixed quality, noted in brackets.
# Test: qHTS Assay for Modulators of Lamin A Splicing
# Details: HeLa LMNA splicing GFP/RFP minigene ratio, 48 h
# Method in brief: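 S3 HeLa stable clones carrying a lamin A-EGFP splicing minigene plus DsRed2 were seeded at 600 cells/well in Opti-MEM with 2% FBS, pin-dosed and incubated 48 h at 37°C. Acumen cytometry (488 nm) gave the GFP/RFP total-intensity ratio.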
# [1] = measured here: RFP viability control channel
# [2] = measured here: GFP splicing reporter channel
Structure (SMILES),AC50 [1],AC50 [2]
COc1ccc(C(=O)/C(=C/c2cccs2)c2nc3ccccc3o2)cc1,"22.4 µM [rising, single point]",
CCc1ccc(CN(Cc2ccco2)C(=O)c2cc(-c3ccc(Cl)cc3)on2)cc1,,"0.794 µM [rising, full curve, poor fit]"
COc1ccc(NC2=C(C)C(=O)CC2)cc1,"31.6 µM [rising, single point]",
O=C(Nc1ccncc1)C1(c2ccccc2)CCCC1,"20 µM [rising, single point]","12.6 µM [rising, single point]"
CCOc1ncccc1C(=O)OCC(=O)Nc1cc(S(=O)(=O)N2CCOCC2)ccc1C,,"1 µM [rising, partial curve, poor fit]"
Cc1ccc(Cl)cc1NC(=O)NC1COc2ccccc2C1 (stereo unspecified),"4.47 µM [falling, full curve, poor fit]","6.31 µM [falling, single point]"
O=C(Nc1nnc(CSCc2ccc(F)cc2)s1)c1ccc([N+](=O)[O-])cc1,"3.55 µM [rising, partial curve]","3.98 µM [rising, full curve, poor fit]"
COc1ccc2nc(SCC(=O)N(C)C3CCCCC3)c(C#N)cc2c1,"11.2 µM [rising, single point]",
CCOC(=O)C1=C(C)Nc2sc(C(=O)c3ccc(F)cc3)c(N)c2C1c1ccc(C(=O)OC)cc1 (stereo unspecified),"12.6 µM [rising, partial curve, poor fit]","12.6 µM [rising, partial curve, poor fit]"
Fc1cccc(F)c1/C=N/NC(=S)Nc1cccnc1,"15.8 µM [rising, partial curve]","0.316 µM [rising, partial curve, poor fit]"
Cc1cc(=O)[nH]c2nnc(SCc3cccc(C(F)(F)F)c3)n12,,"0.0126 µM [rising, full curve, poor fit]"
CC1(C)CC(=O)C(N=Nc2ccc(S(=O)(=O)N3CCCCCC3)cc2)=C(O)C1,"0.891 µM [falling, partial curve, poor fit]","5.62 µM [falling, single point]"
CC(C)c1ccc(NC(=O)Cn2nnc(C(=O)NCCc3ccccc3)c2N)cc1,"0.316 µM [falling, full curve, poor fit]","0.316 µM [falling, full curve, poor fit]"
N#C/C(=C(/O)c1ccc(F)cc1)c1nc2ccccc2s1,"15.8 µM [rising, single point]",

# Reformatted: entries from further up
Structure (SMILES)	AC50 [1]	AC50 [2]
Fc1cccc(F)c1/C=N/NC(=S)Nc1cccnc1	15.8 µM [rising, partial curve]	0.316 µM [rising, partial curve, poor fit]
CC1(C)CC(=O)C(N=Nc2ccc(S(=O)(=O)N3CCCCCC3)cc2)=C(O)C1	0.891 µM [falling, partial curve, poor fit]	5.62 µM [falling, single point]
